# According to the supplement of paper PMC8728848:
# Some of the results follow.
# How the values were obtained:
# Test in all cases: glycan array binding signal (z-score within array); higher = stronger binding
# Details in all cases: glycan notation: IUPAC condensed, linker removed
# Gal3S(b1-4)Glc = molecular target: Gal3S(b1-4)Glc
# Summary of the method: (§1)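 From the Consortium for Functional Glycomics database, 3228 arrays were curated, keeping only those whose protein sequence was available. Binding is given as a within-array Z-score averaged across arrays sharing a protein sequence and across linkers. Negative Z-scores can be read as non-binding.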
# Gal3S(b1-4)Glc6S = molecular target: Gal3S(b1-4)Glc6S
# Summary of the method: as §1
# Gal3S(b1-4)GlcNAc = molecular target: Gal3S(b1-4)GlcNAc
# Summary of the method: as §1
# [1] = molecular target: Gal3S(b1-4)[Fuc(a1-3)]Glc6S
# Summary of the method: as §1
# [2] = molecular target: Gal3S(b1-4)[Fuc(a1-3)]GlcNAc
# Summary of the method: as §1
# [3] = molecular target: Gal3S(b1-4)[Fuc(a1-3)]GlcNAc6S
# Summary of the method: as §1
# Gal3S4S(b1-4)GlcNAc = molecular target: Gal3S4S(b1-4)GlcNAc
# Summary of the method: as §1
# Gal3S6S(b1-4)GlcNAc = molecular target: Gal3S6S(b1-4)GlcNAc
# Summary of the method: as §1
# Gal3S6S(b1-4)GlcNAc6S = molecular target: Gal3S6S(b1-4)GlcNAc6S
# Summary of the method: as §1
# Gal4S(b1-4)GlcNAc = molecular target: Gal4S(b1-4)GlcNAc
# Summary of the method: as §1
# Gal4S6S(b1-4)GlcNAc = molecular target: Gal4S6S(b1-4)GlcNAc
# Summary of the method: as §1
# Gal6P(b1-4)GlcNAc = molecular target: Gal6P(b1-4)GlcNAc
# Summary of the method: as §1
# Gal6S(b1-3)GlcNAc = molecular target: Gal6S(b1-3)GlcNAc
# Summary of the method: as §1
# Gal6S(b1-3)GlcNAc6S = molecular target: Gal6S(b1-3)GlcNAc6S
# Summary of the method: as §1
# Gal6S(b1-4)Glc = molecular target: Gal6S(b1-4)Glc
# Summary of the method: as §1
# Gal6S(b1-4)Glc6S = molecular target: Gal6S(b1-4)Glc6S
# Summary of the method: as §1
# Gal6S(b1-4)GlcNAc = molecular target: Gal6S(b1-4)GlcNAc
# Summary of the method: as §1
# Gal6S(b1-4)GlcNAc6S = molecular target: Gal6S(b1-4)GlcNAc6S
# Summary of the method: as §1
# GalNAc(a1-3)Gal = molecular target: GalNAc(a1-3)Gal
# Summary of the method: as §1
# GalNAc(a1-3)GalNAc = molecular target: GalNAc(a1-3)GalNAc
# Summary of the method: as §1
# [4] = molecular target: GalNAc(a1-3)GalNAc(b1-3)Gal(a1-4)Gal(b1-4)Glc
# Summary of the method: as §1
# [5] = molecular target: GalNAc(a1-3)GalNAc(b1-3)Gal(a1-4)Gal(b1-4)GlcNAc
# Summary of the method: as §1
# GalNAc(b1-3)Gal = molecular target: GalNAc(b1-3)Gal
# Summary of the method: as §1
# [6] = molecular target: GalNAc(b1-3)Gal(a1-4)Gal(b1-4)GlcNAc
# Summary of the method: as §1
# [7] = molecular target: GalNAc(b1-3)Gal(a1-4)Gal(b1-4)GlcNAc(b1-3)Gal(b1-4)Glc
# Summary of the method: as §1
# [8] = molecular target: GalNAc(b1-3)Gal(a1-6)Gal(b1-4)Glc
# Summary of the method: as §1
# GalNAc(b1-3)GalNAc = molecular target: GalNAc(b1-3)GalNAc
# Summary of the method: as §1
# GalNAc(b1-3)GlcNAc = molecular target: GalNAc(b1-3)GlcNAc
# Summary of the method: as §1
# GalNAc(b1-4)Gal(b1-4)Glc = molecular target: GalNAc(b1-4)Gal(b1-4)Glc
# Summary of the method: as §1
# GalNAc(b1-4)GlcNAc = molecular target: GalNAc(b1-4)GlcNAc
# Summary of the method: as §1
# [9] = molecular target: GalNAc(b1-4)GlcNAc(b1-2)Man
# Summary of the method: as §1
# [10] = molecular target: GalNAc(b1-4)GlcNAc(b1-2)Man(a1-3)[GalNAc(b1-4)GlcNAc(b1-2)Man(a1-6)]Man(b1-4)GlcNAc(b1-4)GlcNAc
# Summary of the method: as §1
# [11] = molecular target: GalNAc(b1-4)GlcNAc(b1-3)GalNAc(b1-4)GlcNAc
# Summary of the method: as §1
# GalNAc(b1-4)GlcNAc6S = molecular target: GalNAc(b1-4)GlcNAc6S
# Summary of the method: as §1
# GalNAc(b1-6)GalNAc = molecular target: GalNAc(b1-6)GalNAc
# Summary of the method: as §1
# GalNAc3S(b1-4)GlcNAc = molecular target: GalNAc3S(b1-4)GlcNAc
# Summary of the method: as §1
# GalNAc3S(b1-4)GlcNAc3S = molecular target: GalNAc3S(b1-4)GlcNAc3S
# Summary of the method: as §1
# [12] = molecular target: GalNAc3S(b1-4)[Fuc(a1-3)]GlcNAc
# Summary of the method: as §1
# GalNAc4S6S(b1-4)GlcNAc = molecular target: GalNAc4S6S(b1-4)GlcNAc
# Summary of the method: as §1
# GalNAc6S(b1-4)GlcNAc = molecular target: GalNAc6S(b1-4)GlcNAc
# Summary of the method: as §1
# Glc(a1-4)Glc = molecular target: Glc(a1-4)Glc
# Summary of the method: as §1
# [13] = molecular target: Glc(a1-4)Glc(a1-4)Glc(a1-4)Glc
# Summary of the method: as §1
# Glc(a1-6)Glc(a1-6)Glc = molecular target: Glc(a1-6)Glc(a1-6)Glc
# Summary of the method: as §1
# [14] = molecular target: Glc(a1-6)Glc(a1-6)Glc(a1-6)Glc
# Summary of the method: as §1
# Glc(b1-4)Glc = molecular target: Glc(b1-4)Glc
# Summary of the method: as §1
# Glc(b1-6)Glc = molecular target: Glc(b1-6)Glc
# Summary of the method: as §1
# GlcA(b1-3)Gal = molecular target: GlcA(b1-3)Gal
# Summary of the method: as §1
# GlcA(b1-3)GlcNAc = molecular target: GlcA(b1-3)GlcNAc
# Summary of the method: as §1
# GlcA(b1-6)Gal = molecular target: GlcA(b1-6)Gal
# Summary of the method: as §1
# [15] = molecular target: GlcA3S(b1-3)Gal(b1-4)GlcNAc(b1-2)Man
# Summary of the method: as §1
# [16] = molecular target: GlcA3S(b1-3)Gal(b1-4)GlcNAc(b1-3)Gal(b1-4)Glc
# Summary of the method: as §1
# [17] = molecular target: GlcNAc(a1-3)Gal(b1-4)GlcNAc
# Summary of the method: as §1
# [18] = molecular target: GlcNAc(a1-4)Gal(b1-3)GlcNAc
# Summary of the method: as §1
# [19] = molecular target: GlcNAc(a1-4)Gal(b1-4)GalNAc
# Summary of the method: as §1
# [20] = molecular target: GlcNAc(a1-4)Gal(b1-4)GlcNAc
# Summary of the method: as §1
# [21] = molecular target: GlcNAc(a1-4)Gal(b1-4)GlcNAc(b1-3)Gal(b1-4)Glc
# Summary of the method: as §1
# [22] = molecular target: GlcNAc(a1-4)Gal(b1-4)GlcNAc(b1-3)Gal(b1-4)GlcNAc
# Summary of the method: as §1
# [23] = molecular target: GlcNAc(a1-4)Gal(b1-4)GlcNAc(b1-3)Gal(b1-4)GlcNAc(b1-3)Gal(b1-4)GlcNAc
# Summary of the method: as §1
# [24] = molecular target: GlcNAc(a1-4)Gal(b1-4)GlcNAc(b1-3)Gal(b1-4)[Fuc(a1-3)]GlcNAc(b1-3)Gal(b1-4)[Fuc(a1-3)]GlcNAc
# Summary of the method: as §1
# [25] = molecular target: GlcNAc(a1-6)Gal(b1-4)GlcNAc
# Summary of the method: as §1
binder,measurement,setting,value
"Thrombomodulin Extracellular (Mus musculus), P15306 (protein) MLGIFFLGVLAPASLGLSALAKLQPTGSQCVEHECFALFQGPATFLDASQACQRLQGHLMTVRSSVAADVISLLLSQSSMDLGPWIGLQLPQGCDDPVHLGPLRGFQWVTGDNHTSYSRWARPNDQTAPLCGPLCVTVSTATEAAPGEPAWEEKPCETETQGFLCEFYFTASCRPLTVNTRDPEAAHISSTYNTPFGVSGADFQTLPVGSSAAVEPLGLELVCRAPPGTSEGHWAWEATGAWNCSVENGGCEYLCNRSTNEPRCLCPRDMDLQADGRSCARPVVQSCNELCEHFCVSNAEVPGSYSCMCETGYQLAADGHRCEDVDDCKQGPNPCPQLCVNTKGGFECFCYDGYELVDGECVELLDPCFGSNCEFQCQPVSPTDYRCICAPGFAPKPDEPHKCEMFCNETSCPADCDPNSPTVCECPEGFILDEGSVCTDIDECSQGECFTSECRNFPGSYECICGPDTALAGQISKDCDPIPVREDTKEEEGSGEPPVSPTPGSPTGPPSARPVHSGVLIGISIASLSLVVALLALLCHLRKKQGAARAELEYKCASSAKEVVLQHVRTDRTLQKF",glycan array binding signal (z-score),Gal3S(b1-4)Glc,-0.554
same,glycan array binding signal (z-score),Gal3S(b1-4)Glc6S,0.532
same,glycan array binding signal (z-score),Gal3S(b1-4)GlcNAc,0.121
same,glycan array binding signal (z-score),[1],2.97
same,glycan array binding signal (z-score),[2],-0.408
same,glycan array binding signal (z-score),[3],-0.144
same,glycan array binding signal (z-score),Gal3S4S(b1-4)GlcNAc,0.564
same,glycan array binding signal (z-score),Gal3S6S(b1-4)GlcNAc,0.604
same,glycan array binding signal (z-score),Gal3S6S(b1-4)GlcNAc6S,1.78
same,glycan array binding signal (z-score),Gal4S(b1-4)GlcNAc,-1.12
same,glycan array binding signal (z-score),Gal4S6S(b1-4)GlcNAc,-1.03
same,glycan array binding signal (z-score),Gal6P(b1-4)GlcNAc,-0.241
same,glycan array binding signal (z-score),Gal6S(b1-3)GlcNAc,0.451
same,glycan array binding signal (z-score),Gal6S(b1-3)GlcNAc6S,-1.12
same,glycan array binding signal (z-score),Gal6S(b1-4)Glc,0.205
same,glycan array binding signal (z-score),Gal6S(b1-4)Glc6S,0.336
same,glycan array binding signal (z-score),Gal6S(b1-4)GlcNAc,-1.42
same,glycan array binding signal (z-score),Gal6S(b1-4)GlcNAc6S,-0.624
same,glycan array binding signal (z-score),GalNAc(a1-3)Gal,-0.153
same,glycan array binding signal (z-score),GalNAc(a1-3)GalNAc,0.289
same,glycan array binding signal (z-score),[4],-0.533
same,glycan array binding signal (z-score),[5],0.21
same,glycan array binding signal (z-score),GalNAc(b1-3)Gal,-0.358
same,glycan array binding signal (z-score),[6],-0.153
same,glycan array binding signal (z-score),[7],0.558
same,glycan array binding signal (z-score),[8],-0.793
same,glycan array binding signal (z-score),GalNAc(b1-3)GalNAc,1.8
same,glycan array binding signal (z-score),GalNAc(b1-3)GlcNAc,-0.126
same,glycan array binding signal (z-score),GalNAc(b1-4)Gal(b1-4)Glc,3.27
same,glycan array binding signal (z-score),GalNAc(b1-4)GlcNAc,1.12
same,glycan array binding signal (z-score),[9],-0.804
same,glycan array binding signal (z-score),[10],0.181
same,glycan array binding signal (z-score),[11],1.79
same,glycan array binding signal (z-score),GalNAc(b1-4)GlcNAc6S,-0.286
same,glycan array binding signal (z-score),GalNAc(b1-6)GalNAc,-1.51
same,glycan array binding signal (z-score),GalNAc3S(b1-4)GlcNAc,-0.723
same,glycan array binding signal (z-score),GalNAc3S(b1-4)GlcNAc3S,0.643
same,glycan array binding signal (z-score),[12],-0.675
same,glycan array binding signal (z-score),GalNAc4S6S(b1-4)GlcNAc,-0.595
same,glycan array binding signal (z-score),GalNAc6S(b1-4)GlcNAc,1.27
same,glycan array binding signal (z-score),Glc(a1-4)Glc,0.367
same,glycan array binding signal (z-score),[13],0.993
same,glycan array binding signal (z-score),Glc(a1-6)Glc(a1-6)Glc,-0.105
same,glycan array binding signal (z-score),[14],-0.226
same,glycan array binding signal (z-score),Glc(b1-4)Glc,-0.067
same,glycan array binding signal (z-score),Glc(b1-6)Glc,-0.947
same,glycan array binding signal (z-score),GlcA(b1-3)Gal,-0.28
same,glycan array binding signal (z-score),GlcA(b1-3)GlcNAc,-0.862
same,glycan array binding signal (z-score),GlcA(b1-6)Gal,1.18
same,glycan array binding signal (z-score),[15],-0.44
same,glycan array binding signal (z-score),[16],-0.979
same,glycan array binding signal (z-score),[17],-0.816
same,glycan array binding signal (z-score),[18],0.594
same,glycan array binding signal (z-score),[19],-0.931
same,glycan array binding signal (z-score),[20],-0.555
same,glycan array binding signal (z-score),[21],-0.323
same,glycan array binding signal (z-score),[22],-1.19
same,glycan array binding signal (z-score),[23],2.52
same,glycan array binding signal (z-score),[24],0.795
same,glycan array binding signal (z-score),[25],-1.28

# Another view of some results above.
binder | measurement | setting | value
Thrombomodulin Extracellular (Mus musculus), P15306 (protein) MLGIFFLGVLAPASLGLSALAKLQPTGSQCVEHECFALFQGPATFLDASQACQRLQGHLMTVRSSVAADVISLLLSQSSMDLGPWIGLQLPQGCDDPVHLGPLRGFQWVTGDNHTSYSRWARPNDQTAPLCGPLCVTVSTATEAAPGEPAWEEKPCETETQGFLCEFYFTASCRPLTVNTRDPEAAHISSTYNTPFGVSGADFQTLPVGSSAAVEPLGLELVCRAPPGTSEGHWAWEATGAWNCSVENGGCEYLCNRSTNEPRCLCPRDMDLQADGRSCARPVVQSCNELCEHFCVSNAEVPGSYSCMCETGYQLAADGHRCEDVDDCKQGPNPCPQLCVNTKGGFECFCYDGYELVDGECVELLDPCFGSNCEFQCQPVSPTDYRCICAPGFAPKPDEPHKCEMFCNETSCPADCDPNSPTVCECPEGFILDEGSVCTDIDECSQGECFTSECRNFPGSYECICGPDTALAGQISKDCDPIPVREDTKEEEGSGEPPVSPTPGSPTGPPSARPVHSGVLIGISIASLSLVVALLALLCHLRKKQGAARAELEYKCASSAKEVVLQHVRTDRTLQKF | glycan array binding signal (z-score) | Gal4S6S(b1-4)GlcNAc | -1.03
same | glycan array binding signal (z-score) | GalNAc(a1-3)Gal | -0.153
same | glycan array binding signal (z-score) | [7] | 0.558
same | glycan array binding signal (z-score) | GlcA(b1-6)Gal | 1.18
